Measured values from PubChem BioAssay AID2551 (National Center for Advancing Translational Sciences (NCATS), 2010).
Out of some 310,000 compounds screened, about 17,000 (5.5%) were called active. The shares of active, inactive and inconclusive entries below differ from those in the screen. Calls come from the whole dose curve; as a rule, active = well fitted inhibition curve with a large enough effect; inconclusive = small, poorly fitted or top-dose-only effect, or effect the other way; inactive = no such curve, though single readings can be large or run the other way. Potencies beside an inconclusive call are fits to weak or partial responses and may not hold up.

By UniProt entry, the sequences of proteins in these tests, tags left out. Where a name states a change or a piece, a line headed by the entry shows the natural chain unless it says otherwise.
UniProt P51450: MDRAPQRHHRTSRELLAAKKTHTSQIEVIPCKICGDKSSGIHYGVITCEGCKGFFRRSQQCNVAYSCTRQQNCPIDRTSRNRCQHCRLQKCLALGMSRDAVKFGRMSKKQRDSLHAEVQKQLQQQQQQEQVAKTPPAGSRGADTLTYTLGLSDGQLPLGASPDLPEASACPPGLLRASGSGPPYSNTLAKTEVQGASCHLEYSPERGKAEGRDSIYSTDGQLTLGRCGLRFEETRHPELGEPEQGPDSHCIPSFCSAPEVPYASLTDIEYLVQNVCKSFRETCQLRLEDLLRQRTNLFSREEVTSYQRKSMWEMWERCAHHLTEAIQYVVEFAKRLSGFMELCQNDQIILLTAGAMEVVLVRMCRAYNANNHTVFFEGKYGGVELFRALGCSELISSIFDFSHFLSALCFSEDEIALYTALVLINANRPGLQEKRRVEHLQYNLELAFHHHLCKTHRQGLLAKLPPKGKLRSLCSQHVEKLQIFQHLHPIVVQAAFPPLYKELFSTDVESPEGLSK

target: Nuclear receptor ROR-gamma (Mus musculus) (UniProt P51450); experiment: qHTS for inhibitors of ROR gamma transcriptional activity; details: Drosophila S2 Gal4-RORgamma UAS-luciferase reporter, 20 h; activity change, negative = inhibition: at 53.6 µM (top of the series); note: nearly all actives have a fitted effect of over 60% in size
Outline: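 Stable Schneider cell line, Gal4 DNA-binding domain fused to ROR gamma, UAS-luciferase. Cmpd 1 hr RT → CuSO4 700 uM final → 20 hr RT → luciferase reagent 10 min → luminescence.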
% is set by controls: 0 for no effect and ±100 for the full control effect; potency is the fitted concentration of half-maximal effect.

Potency, active:
Cc1cc(C(=O)COC(=O)c2ccccc2O)c(C)n1Cc1cccs1 3.55 µM
CCNC(=S)NN=C1c2ccccc2-c2ccccc21 1.78 µM
C/C(=N\NC(=S)NCc1ccccc1)c1ccco1 1.78 µM
O=C1C=C(NCCO)C(=O)c2cnccc21 3.55 µM
CCOc1ccc(C(=O)NC(=S)Nc2ccc(N3CCCCC3)cc2)cc1[N+](=O)[O-] 3.16 µM
Cc1ccc(C2CC(c3cccs3)=NN2C(=O)CCl)cc1 (stereo not given) 17.8 µM
CC1(C)SC(=S)N(/N=C/c2ccccc2O)C1N(O)C(=O)Nc1ccccc1 (stereo not given) 17.8 µM
Cc1ccc(Cn2c(/C=C/c3ccco3)nc3ccccc32)cc1 11.2 µM
CCN(CC)S(=O)(=O)c1ccc(N/N=C/c2ccc(O)cc2O)nc1 14.1 µM

Potency, inconclusive:
CN(C)CCCN(C(=O)c1ccc(S(=O)(=O)N2CCCc3ccccc32)cc1)c1nc2ccc(F)cc2s1 35.5 µM [inhibitor, single point]
CCOC(=O)C1(CCCc2ccccc2)CCN(C(=O)c2cncs2)CC1 35.5 µM [activator, single point]
COc1ccc(C(C(=O)NC2CCCCC2)N(Cc2cccs2)C(=O)Cc2c[nH]c3ccccc23)cc1OC (stereo not given) 12.6 µM [activator, single point]
COc1ccc(N2CC(C(=O)Nc3c4c(nn3-c3ccc(OC)cc3)CS(=O)(=O)C4)CC2=O)cc1 (stereo not given) 25.1 µM [inhibitor, single point]
CCOC(=O)c1sc(NC(=O)c2ccc(S(=O)(=O)N3CCCCC3)cc2)nc1-c1ccccc1 12.6 µM [activator, partial curve]
CCCOc1ccccc1NC(=O)CC1Nc2ccccc2NC1=O (stereo not given) 0.398 µM [activator, partial curve, poor fit]
COc1cc2[nH]c(C(=O)Nc3ccc(F)cc3)cc2c(OC)c1OC 3.16 µM [activator, full curve]
CCOc1ccc(CC2c3cc(OCC)c(OCC)cc3CCN2C(=O)c2cc(OC)c(OC)c(OC)c2)cc1OCC (stereo not given) 0.398 µM [activator, partial curve]
COc1ccc(OCc2cccc(C(=O)Nn3cc([N+](=O)[O-])cn3)c2)cc1 0.891 µM [inhibitor, full curve]
CC(CCc1ccccc1)NS(=O)(=O)c1ccccc1 (stereo not given) 35.5 µM [activator, single point]
Cc1cccc(N2C(=O)C(Cc3ccccc3)NC2=S)c1 (stereo not given) 25.1 µM [inhibitor, single point]
O=C(OCn1ncc(Cl)c(Cl)c1=O)c1ccc(C(F)(F)F)cc1 20 µM [inhibitor, single point]
COc1cccc(-c2cc(C(=O)N3CCN(Cc4ccc5c(c4)OCO5)CC3)on2)c1 11.2 µM [activator, partial curve]
CCOC(=O)c1ccc(-c2nnc(-c3ccc(Cl)cc3Cl)o2)cc1 17.8 µM [activator, partial curve]
CSc1sc(C(=O)O)c2c1C(=O)CCC2 31.6 µM [inhibitor, single point]
COc1cnc(SCc2ccc(Cl)c(Cl)c2)nc1Cl 7.94 µM [activator, partial curve]
O=C(CCCl)N1CCN(c2nc(-c3ccccc3)cs2)CC1 22.4 µM [activator, single point]
C/C(=N\NC(=O)c1cc(C)oc1C)c1ccc(N2CCOCC2)cc1 17.8 µM [inhibitor, single point]
O=C(N/N=C/c1ccoc1)c1ccc(Cl)cc1Cl 10 µM [inhibitor, partial curve]
Cc1ccc(OCn2c(=O)sc3ccccc32)cc1 0.708 µM [activator, full curve, poor fit]
S=c1[nH]nc(-c2cc(-c3ccccc3)n[nH]2)n1/N=C/c1ccc(Cl)cc1 7.08 µM [inhibitor, partial curve]
CCN(CC)CCC(c1ccc(N(C)C)cc1)c1c(OC)cc(OC)c2c(-c3ccccc3)cc(=O)oc12 (stereo not given) 35.5 µM [inhibitor, single point]
Cc1cccc(-n2ncc3c(N4CCCC4)ncnc32)c1 10 µM [inhibitor, single point]
CC(C)c1ccc(NC(=O)NN2CCOCC2)cc1 31.6 µM [inhibitor, single point]
COc1cccc(Nc2ncc3nc(-c4cccs4)c(=O)n(C[C@H]4CCCO4)c3n2)c1 17.8 µM [activator, single point]
CC(C)c1ccc(C2C3CSCC=C3C(C#N)=C(N)C2(C#N)C#N)cc1 (stereo not given) 3.55 µM [inhibitor, single point]
Clc1ccc(CONc2ncnc3nonc23)c(Cl)c1 11.2 µM [activator, partial curve]
O=C(/C=C/c1ccc(Cl)cc1)N1CCN(c2c(Cl)cccc2[N+](=O)[O-])CC1 35.5 µM [activator, single point]
O=C(NCC(c1cccs1)N1CCOCC1)c1cc2ccccc2o1 (stereo not given) 5.62 µM [inhibitor, single point]
CS(=O)(=O)Nc1ccc(C(=O)NCCSCc2ccco2)cc1 3.98 µM [activator, full curve, poor fit]
CCSCc1nnc(SCC(=O)c2ccc(OC)cc2)n1C 17.8 µM [inhibitor, single point]
CC(=O)c1ccccc1OC(=O)COc1ccc(Cl)cc1C 31.6 µM [activator, single point]
COc1ccccc1N1CCN(C(=O)C(=O)c2cn(CC(=O)N3CCCCCC3)c3ccccc23)CC1 35.5 µM [activator, single point]
CC(C)(C)c1ccc(OC2=CS(=O)(=O)c3ccccc32)cc1 2.82 µM [activator, partial curve]
O=C(CN1CCC(n2nnc3cc(C(F)(F)F)ccc32)CC1)Nc1ccc2c(c1)OCCO2 5.62 µM [activator, partial curve]
CCCC(=O)NC(=S)Nc1cccc(NC(=O)c2ccccc2)c1 14.1 µM [inhibitor, single point]
O=S1(=O)CC(NCc2ccccc2)C(Nc2ccc(Cl)cc2)C1 (stereo not given) 28.2 µM [activator, single point]
O=c1cc(/C=C/c2ccccc2)oc2ccccc12 0.355 µM [activator, full curve, poor fit]
O=C(CCn1cnnn1)N1CCCC(Nc2ccc(F)cc2)C1 (stereo not given) 25.1 µM [inhibitor, single point]
CCCc1cc2c(c(=O)o1)C(O)C1OC1C2=O (stereo not given) 5.01 µM [inhibitor, single point]
Cc1ccc(NC(=O)CC2COc3ccccc3O2)cc1 (stereo not given) 12.6 µM [activator, partial curve]
C1=C(c2ccccc2)Nc2ccccc2N=C1c1ccccc1 15.8 µM [activator, partial curve, poor fit]
COc1cc2[nH]c(=S)n(CC3CCCO3)c(=O)c2cc1OC (stereo not given) 35.5 µM [inhibitor, single point]
COc1cc(/C=C2\C(=N)N3N=CSC3=NC2=O)ccc1OS(=O)(=O)c1ccccc1 10 µM [inhibitor, single point]
Cc1ccc(OCc2nc3ccccc3n2C)cc1 22.4 µM [inhibitor, single point]
O=C(NCSc1ccncn1)c1ccccc1 22.4 µM [inhibitor, single point]
COc1ccccc1N(CC(O)Cn1c2ccccc2c2ccccc21)S(=O)(=O)c1ccccc1 (stereo not given) 35.5 µM [activator, single point]
COc1ccc(C(=O)NC(=S)Nc2ccc(S(=O)(=O)Nc3cc(OC)ncn3)cc2)cc1 12.6 µM [activator, single point]

3 records picked at random from those above, as already listed:
Potency, inconclusive:
COc1cc2[nH]c(C(=O)Nc3ccc(F)cc3)cc2c(OC)c1OC 3.16 µM [activator, full curve]
Clc1ccc(CONc2ncnc3nonc23)c(Cl)c1 11.2 µM [activator, partial curve]
COc1ccc(C(=O)NC(=S)Nc2ccc(S(=O)(=O)Nc3cc(OC)ncn3)cc2)cc1 12.6 µM [activator, single point]

Next part.

Activity change, negative = inhibition, inactive:
CN1C(=O)CC(C(=O)Nc2ccc(F)cc2)SC1=Nc1ccc2c(c1)OCO2 (stereo not given) 41.7%
COc1ccc(CN=C2Nc3ccccc3CS2)cc1 0.219%
COc1ccc(Cl)cc1S(=O)(=O)Nc1ccc(Cl)cn1 2.78%
CC(C)[N+](C)(C)CC(O)COc1cccc2ccccc12 (stereo not given) -0.0805%
C/C(=N/NC(=O)CCCOc1ccc(Cl)cc1Cl)c1ccc(C)o1 -40.5%
Cc1cc(C(=O)N(C)Cc2c(F)cccc2Cl)c2ccccc2n1 20.9%
CCN(CC)S(=O)(=O)c1cccc(C(=O)Nc2sc3c(c2C(N)=O)CCCC3)c1 -0.313%
O=c1[nH]cnc2sc3c(c12)CCCCC3 19.2%
CC1CN(C(=S)Nc2ccccc2F)CC(C)O1 (stereo not given) 13%
Cn1cc(S(=O)(=O)N2CCC3(CC2)OCCO3)c(=O)n(C)c1=O 14.5%
CCOC(=O)c1c(NC(=O)COC(=O)c2ccccn2)sc2c1CCC2 -1.55%
COc1ccc(CC(=O)OCN2C(=O)c3ccccc3C2=O)cc1 19.4%
Cc1ccc(NC(=O)COC(=O)CCC(=O)c2ccc(C(C)(C)C)cc2)c([N+](=O)[O-])c1 8.76%
